{"sequences": {"note": "Chains of the proteins cited; added tags and fusions are not shown. Lines headed by an entry give the natural chain unless they say otherwise; changes in a name come on top.", "UniProt P02724": "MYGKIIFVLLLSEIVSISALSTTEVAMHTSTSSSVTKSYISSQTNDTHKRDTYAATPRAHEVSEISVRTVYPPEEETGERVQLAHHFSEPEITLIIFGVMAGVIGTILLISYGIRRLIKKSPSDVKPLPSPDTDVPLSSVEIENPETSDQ"}, "source": "patent US20210171652A1", "binders": {"B1": {"name": "KP3-03 Fab/phage clone (anti-Band 3, Wrb) (Fab, V domains shown)", "VH": "EVQLLESGPGLVKPSETLSLTCTVSGSSLSSAYGWNWIRQPPGKGLEWIGSIGGSRDNTNYNPSLKRRVTISKDTSKNQFSLKLKSVTAADTAVYYCAQRGAYGYSYFDYWGQGVLVAVSS", "VL": "AAELTQSPATLSLSPGETATLSCRASQSVGSYLAWYQQKPGQAPKLLVHGAYFRAAGIPDRFTGSGSRTDFTLTISSLEPEDVGIYHCQQYNDLLPLTFGGGTKVEIK"}}, "target": "Band 3 / glycophorin A (Wright b, Wrb epitope) on human red blood cells (human) (UniProt P02724)", "test": "Fab/phage binding assays on human RBCs incl. rare RBC types lacking conserved antigens", "note": "These are yes or no findings as the source states them, for the method shown. Some binding calls cover weakened binding; strength is not graded here.", "data": [{"binder": "B1", "values": [{"measurement": "binding", "value": "binds"}]}]}
